The series can be described thus: Pharmacokinetic studies of ENR and SAL in broilers (plasma, non-compartmental).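 As to all read-outs here: plasma drug levels measured by HPLC or LC-MS/MS, with PK parameters obtained through non-compartmental analysis in WinNonlin.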 The note with it: AA broiler, po, 7.5 mg/kg, n=6, Mean ± SD; for AUC(0-t): AUC0-24h; for AUC(0-inf): AUC0-∞.
Setting [1] is: SAL (5 d) + ENR: SAL 60 mg/kg mixed feeding 5 days, then ENR 7.5 mg/kg gavage.
Setting [2] is: SAL + ENR: ENR 7.5 mg/kg + SAL 6.0 mg/kg co-gavage.

The record followed here is publication PMC9952136 (Antibiotics, 2023).

`O=C(O)c1cn(C2CC2)c2cc(N3CCNCC3)c(F)cc2c1=O` [CIP, ciprofloxacin]: where the note is “ENR (7.5 mg/kg) gavage alone”, the AUC(0-t) was determined as 540 ± 180 ng·h/mL, the area under the curve AUC(0-inf) is 670 ± 210 ng·h/mL, the highest level (Cmax) was 80 ± 30 ng/mL and the time to peak (Tmax) came out at 3.33 ± 1.03 h. Also, under setting [1], the AUC(0-t) came to 1220 ± 160 ng·h/mL, the area under the curve AUC(0-inf) was determined as 1570 ± 130 ng·h/mL, the maximum concentration (Cmax) is 110 ± 20 ng/mL and the Tmax came to 3 ± 1.1 h. Besides, under setting [2], the AUC(0-t) was found to be 1290 ± 150 ng·h/mL, the AUC(0-inf) was determined as 1840 ± 320 ng·h/mL, the maximum concentration (Cmax) worked out at 100 ± 30 ng/mL and the Tmax turned out to be 3.2 ± 1.1 h.
